US10058612B2, “Impaired energy processing disorders and mitochondrial deficiency” (priority 2011, dated 2018)

System: WT (W303) yeast
Details: 200 μM, 4 h incubation

## 11,11,14,14-Tetradeutero-cis,cis,cis-octadeca-8,12,15-trienoic acid [D4-ALA]
  incorporation of fatty acid by yeast: avidly incorporate
